# Source: PubChem BioAssay AID504467 (National Center for Advancing Translational Sciences (NCATS), 2011)
# Hit rate of the full screen: of about 330,000 compounds, about 7,700 (2.3%) were called active. The inconclusive results got no clear call from the source; some entries with a clear call stand among them for comparison. Calls follow the shape of the dose curve; as a rule, active = well fitted inhibition curve with a large enough effect; inconclusive = small, poorly fitted or top-dose-only effect, or effect the other way; inactive = flat fitted curve, though single readings scatter. Potencies beside an inconclusive call are fits to weak or partial responses and may not hold up.
# Assay: qHTS screen for small molecules that inhibit ELG1-dependent DNA repair in human embryonic kidney (HEK293T) cells expressing luciferase-tagged ELG1; also: nearly all actives have a fitted effect of over 55% in size
# Conditions: HEK293T ELG1-luciferase reporter, luminescence, 16 h, DNA damage induced by 5-fluorouridine; activity change, negative = inhibition: at 46.1 µM (top of the series)
# How it was run: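 Step one: seed 2,000 cells per well. Step two: pin-transfer compound or DMSO alongside 5-fluorouridine. Step three: incubate 16 hr, 37 °C, 5% CO2. Step four: add ONE-Glo, wait 30 min, read luminescence.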
# % is scaled to controls: 0 for no effect and ±100 for the full control effect; potency is read from the fitted curve at half-maximal effect.
Structure (SMILES),Potency,"activity change, negative = inhibition"
O=C(C[C@@H]1C/C=C/CC[C@@H](Cc2ccc(F)cc2)C(=O)OC[C@H](Cc2ccccc2)NC1=O)N[C@H](CO)Cc1ccccc1,"inconclusive: 7.3 µM [inhibitor, partial curve, poor fit]",–
C=C(C)Cn1c(-c2ccncc2)n[nH]c1=S,–,inactive: 7.92%
Cc1ccc2c(c1)[C@H]1[C@H](CO2)[C@H](c2ccccc2)[C@]2(C)C(=O)N(Cc3ccc(Cl)cc3)CC(=O)N12,"inconclusive: 25.9 µM [inhibitor, single point]",–
C[C@H](CO)N1C[C@H](C)[C@@H](CN(C)S(=O)(=O)c2ccccc2)Oc2ccc(NC(=O)Nc3ccc4c(c3)OCO4)cc2C1=O,"inconclusive: 20.6 µM [inhibitor, partial curve, poor fit]",–
CCOC(=O)c1cnn(-c2ccc([N+](=O)[O-])cc2)c1N,"inconclusive: 16.4 µM [activator, partial curve]",–
CCOC(=O)CSc1nc2sc3c(c2c(=O)[nH]1)CC(C)(CC)OC3 (stereo not drawn),–,inactive: 12.8%
COc1ccc(C(=O)Nc2nc3ccccc3s2)cc1,"inconclusive: 0.259 µM [activator, partial curve]",–
CCN1C(=O)C(=O)c2cc(C)ccc21,"inconclusive: 16.4 µM [activator, single point]",–
CCn1cc(C(=O)NC2CC3CCC2C3)c(=O)c2ccc(C)nc21 (stereo not drawn),–,inactive: -4.37%
COc1ccc(-c2cc(C(F)F)nc(-n3nc(C)cc3C)n2)cc1,"inconclusive: 18.4 µM [inhibitor, single point]",–
CS(=O)(=O)c1ccc2nc(NC(=O)c3ccc(NS(=O)(=O)c4ccc(F)c(F)c4)cc3)sc2c1,"inconclusive: 29.1 µM [inhibitor, single point]",–
COc1ccccc1N1CCN(C(=O)c2cn(-c3ccccc3)nc2-c2cccnc2)CC1,"inconclusive: 29.1 µM [inhibitor, single point]",–
COc1ccc(-c2nc(-c3cccs3)c(-c3cccs3)[nH]2)cc1OC,active: 20.6 µM,–
CC(=O)N1c2ccc(S(=O)(=O)N3CCC(C(=O)Nc4cccc(C)c4)CC3)cc2CC1C (stereo not drawn),active: 29.1 µM,–
CSc1cccc(NC(=O)c2nnn(CC(=O)Nc3cc(C)cc(C)c3)c2N)c1,"inconclusive: 16.4 µM [activator, partial curve, poor fit]",–
N#CCSc1nc(N)c(C#N)c(C2CCCCC2)c1C#N,"inconclusive: 1.3 µM [activator, partial curve, poor fit]",–
O=C(Cc1cccs1)N/N=C/C=C/c1ccco1,"inconclusive: 16.4 µM [activator, single point]",–
Cc1cccc2cc(C3CC(c4ccco4)=NN3S(C)(=O)=O)c(Cl)nc12 (stereo not drawn),"inconclusive: 18.3 µM [inhibitor, single point]",–
CC1CCCC(NC(=O)c2cccc(N3CCCC3=O)c2)C1C (stereo not drawn),"inconclusive: 20.6 µM [activator, single point]",–
CC[C@]12c3[nH]c4cc(CCC(=O)N(C)C)ccc4c3CCN1C(=O)[C@@H](CC(=O)NCC13CC4CC(CC(C4)C1)C3)C[C@@H]2C(=O)N1CCN(C(=O)c2ccco2)CC1,–,inactive: 29.5%
COCCNC(=O)C(=O)Nc1cccc(Br)c1,"inconclusive: 18.4 µM [activator, partial curve]",–

# As entered above.
# Value for `CCn1cc(C(=O)NC2CC3CCC2C3)c(=O)c2ccc(C)nc21` (stereo not drawn) under activity change, negative = inhibition: inactive: -4.37%
# Value for `Cc1cccc2cc(C3CC(c4ccco4)=NN3S(C)(=O)=O)c(Cl)nc12` (stereo not drawn) under Potency: inconclusive: 18.3 µM [inhibitor, single point]
# Value for `Cc1ccc2c(c1)[C@H]1[C@H](CO2)[C@H](c2ccccc2)[C@]2(C)C(=O)N(Cc3ccc(Cl)cc3)CC(=O)N12` under Potency: inconclusive: 25.9 µM [inhibitor, single point]
# Value for `CC1CCCC(NC(=O)c2cccc(N3CCCC3=O)c2)C1C` (stereo not drawn) under Potency: inconclusive: 20.6 µM [activator, single point]
# Value for `CSc1cccc(NC(=O)c2nnn(CC(=O)Nc3cc(C)cc(C)c3)c2N)c1` under Potency: inconclusive: 16.4 µM [activator, partial curve, poor fit]

# (cont.)

Structure (SMILES),Potency,"activity change, negative = inhibition"
O=C(Nc1cccc2cccnc12)c1cccc(N2C(=O)CCC2=O)c1,"inconclusive: 11.6 µM [activator, partial curve, poor fit]",–
CCC(C)N(CCNC(=O)c1ccc2c(c1)NC(=O)c1ccccc1S2)C1CCCCC1 (stereo not drawn),"inconclusive: 0.184 µM [inhibitor, partial curve, poor fit]",–
CCCn1nc(NC(=O)c2ccco2)c2cc3ccc(C)cc3nc21,"inconclusive: 20.6 µM [inhibitor, partial curve]",–
COc1ccc(Br)cc1/C=N/NC(=O)c1nc(-c2ccccc2)n2c1CCCCC2,active: 20.6 µM,–
CC(C(=O)NCCN1CCOCC1)(c1ccccc1)c1ccccc1,–,inactive: 12.7%
Cn1nnnc1SCCOc1ccc(C#N)cc1,"inconclusive: 18.4 µM [activator, single point]",–
Cc1cccc(OCc2nnc(SCC(=O)NCCc3ccccc3)o2)c1,–,inactive: 2%
NC(=O)Cc1ccc(C(=O)c2ccc(Cl)cc2)s1,"inconclusive: 1.16 µM [inhibitor, full curve, poor fit]",–
CCOC(=O)c1c(NC(=O)COC(=O)CCOc2ccc(OCC)cc2)sc(C(=O)N(C)C)c1C,"inconclusive: 20.6 µM [inhibitor, single point]",–
COc1cc(/C=C/C(=O)Nc2cc(C(F)(F)F)ccc2Cl)cc(OC)c1OC,"inconclusive: 10.3 µM [inhibitor, partial curve, poor fit]",–
COc1ccc(/C=N/Nc2cc(C)nc(N)n2)cc1,"inconclusive: 23.1 µM [activator, single point]",–
O=C1C(=O)N(CCCn2ccnc2)C(c2ccc([N+](=O)[O-])cc2)/C1=C(\O)c1ccc2c(c1)OCCO2 (stereo not drawn),–,inactive: 17.1%
COCCCNc1nc(N)c([N+](=O)[O-])c(NCC2CCCO2)n1 (stereo not drawn),"inconclusive: 14.6 µM [activator, single point]",–
CC1Sc2ccc(S(=O)(=O)CCC(=O)N(C)Cc3ccccc3)cc2NC1=O (stereo not drawn),–,inactive: -3.81%
Cc1ccc(/C=C/C(=O)Nc2nnc(SCc3ccc(C#N)cc3)s2)o1,"inconclusive: 18.4 µM [activator, single point]",–
Cc1occc1C(=O)Nc1sc2c(c1C(N)=O)CCCCC2,"inconclusive: 1.84 µM [activator, partial curve, poor fit]",–
CC(C)Oc1ccc(C(=O)Nc2ncn[nH]2)cc1,"inconclusive: 10 µM [activator, partial curve, poor fit]",–
Cc1c(C(=O)Nc2cccc(S(=O)(=O)N3CCCC3)c2)oc2ccccc12,–,inactive: -10.1%
C=CCc1cccc2cc(C(=O)Nc3ccc(CC(=O)O)cc3)c(=O)oc12,"inconclusive: 20.6 µM [activator, single point]",–
COc1ccc(CCNc2nc(-c3ccccn3)cs2)cc1OC,active: 18.3 µM,–
CCOC(=O)c1c(NC(=O)CSc2nnc(-c3cccnc3)n2Cc2ccco2)sc(C)c1C,"inconclusive: 29.1 µM [inhibitor, single point]",–

Structure (SMILES),Potency,"activity change, negative = inhibition"
CC(C)CSc1nnc2c3ccccc3n(C)c2n1,"inconclusive: 14.6 µM [activator, partial curve]",–
CCOC(=O)c1c(C)[nH]c(C)c1C(=O)CSc1nc2ccccc2c(=O)n1-c1ccc(C)cc1,"inconclusive: 18.4 µM [inhibitor, single point]",–
COc1ccc(CCNC(=O)CSc2nnc(-c3cccc(C)c3)o2)cc1OC,"inconclusive: 14.6 µM [inhibitor, single point]",–
Cc1noc(C)c1CSc1nnc(-c2ccncc2)n1-c1cccc(Cl)c1C,"inconclusive: 23.1 µM [activator, single point]",–
CN(C)CCCn1c(SCC(=O)Nc2sc3c(c2C#N)CCCC3)nnc1-c1ccncc1,"inconclusive: 20.6 µM [inhibitor, partial curve, poor fit]",–
O=S(=O)(c1ccc(N=C2NN=C(c3cc(F)ccc3F)CS2)cc1)N1CCOCC1,"inconclusive: 0.82 µM [inhibitor, full curve, poor fit]",–
COc1ccc(C2=NN(S(C)(=O)=O)C(c3cccs3)C2)cc1 (stereo not drawn),"inconclusive: 8.2 µM [activator, partial curve]",–
Cc1ccc(OCCCn2c(CO)nc3ccccc32)cc1,"inconclusive: 5.17 µM [activator, single point]",–
COc1ccc(CCN=C(N)Nc2nc(C)cc(C)n2)cc1,"inconclusive: 10.3 µM [inhibitor, partial curve, poor fit]",–
O=C(O)c1cc(S(=O)(=O)N2CCN(S(=O)(=O)c3ccc4ccccc4c3)CC2)ccc1Br,"inconclusive: 20.6 µM [activator, single point]",–
COc1ccc(C2CC(c3cccs3)=Nc3ccccc3S2)cc1 (stereo not drawn),"inconclusive: 2.59 µM [activator, full curve, poor fit]",–
Cc1cc(C)cc(NC(=O)c2c(C)nc3ccccn23)c1,–,inactive: -2.89%
COc1ccc(C2/C(=C(/O)c3ccc(C)cc3)C(=O)C(=O)N2CCCN2CCOCC2)cc1 (stereo not drawn),"inconclusive: 35.5 µM [inhibitor, partial curve, poor fit]",–
CNC(=O)/C(C#N)=C\c1ccc(CNS(=O)(=O)c2ccccc2)o1,–,inactive: -6.15%
O=[N+]([O-])c1ccc(Oc2ccc(-c3cnc4ccccc4n3)cc2[N+](=O)[O-])cc1,"inconclusive: 9.2 µM [activator, partial curve, poor fit]",–
CC1CCC(NC(=O)c2nn(C)c3c2CSc2ccccc2-3)CC1 (stereo not drawn),"inconclusive: 23.1 µM [activator, single point]",–
CC1(C)O[C@H]2CC(=O)OC[C@]23[C@H]2CC[C@@]4(C)[C@H](c5ccoc5)OC(=O)[C@H]5O[C@]54[C@]2(C)[C@@H](O)C[C@@H]13,"inconclusive: 23.1 µM [activator, partial curve, poor fit]",–
COc1cc(/C=N/NC(=O)c2ccc3ccccc3c2)ccc1Oc1ccc([N+](=O)[O-])cn1,active: 16.4 µM,–
COc1cccc2[nH]c(C(=O)NCCCN3CCCC3=O)cc12,"inconclusive: 18.3 µM [activator, partial curve]",–
O=c1cc(CSCc2ccc(Cl)cc2)[nH]c(=O)[nH]1,–,inactive: -2.17%
O=C(COC(=O)c1ccccc1Br)NCCN1C(=O)CSC1=O,"inconclusive: 20.6 µM [activator, single point]",–
